Measurements from US20150166662A1.
Results are given in words; binding and its absence hold for the method and conditions named.

Experiments:
insulin [1] = assay: polyreactivity ELISA
insulin [2] = assay: ELISA, antibody titrated on insulin
[3] = target: keyhole limpet hemocyanin (KLH); assay: polyreactivity ELISA
[4] = target: keyhole limpet hemocyanin (KLH); assay: ELISA, antibody titrated on KLH

B1: ibalizumab (wild type) (antibody, human IgG1, kappa, V domains shown)
VH: QVQLQQSGPEVVKPGASVKMSCKASGYTFTSYVIHWVRQKPGQGLDWIGYINPYNDGTDYDEKFKGKATLTSDTSTSTAYMELSSLRSEDTAVYYCAREKDNYATGAWFAYWGQGTLVTVSS
VL: DIVMTQSPDSLAVSLGERVTMNCKSSQSLLYSTNQKNYLAWYQQKPGQSPKLLIYWASTRESGVPDRFSGSGSGTDFTLTISSVQAEDVAVYYCQQYYSYRTFGGGTKLEIKR
binding (insulin [1]): no binding
binding (insulin [2]): no binding (tested: 10 ug/mL)

B2: LM52, glycan-modified anti-CD4 IgG1 antibody with an N-linked glycan at light chain position 52 (antibody, V domains shown)
VH: QVQLQQSGPEVVKPGASVKMSCKASGYTFTSYVIHWVRQKPGQGLDWIGYINPYNDGTDYDEKFKGKATLTSDTSTSTAYMELSSLRSEDTAVYYCAREKDNYATGAWFAYWGQGTLVTVSS
VL: DIVMTQSPDSLAVSLGERVTMNCKSSQSLLYSTNQKNYLAWYQQKPGQSPKLLIYWANSTESGVPDRFSGSGSGTDFTLTISSVQAEDVAVYYCQQYYSYRTFGGGTKLEIKR
binding [3]: no binding
binding (insulin [1]): no binding
binding [4]: no binding (tested: 10 ug/mL)
binding (insulin [2]): no binding (tested: 10 ug/mL)
